Assay results as given in US11324825B2, “Synthetic retinoids (in cell modulation)” (University of Durham, priority 2016, dated 2022).
“Also recorded” adds a separate entry of the source.

Test system: HaCaT human keratinocyte cells
Assay: Fixed cell imaging (localisation of compound fluorescence)
Type: cell-based
Conditions: 1 μM, 72 hours (FIG. 4)

CC(C)N1CCC(C)(C)c2cc(C#Cc3ccc(/C=C/C(=O)O)cc3)ccc21 [DC324, (2E)-3-(4-2-[4,4-Dimethyl-1-(propan-2-yl)-1,2,3,4-tetrahydroquinolin-6-yl]ethynylphenyl)prop-2-enoic Acid]
subcellular localisation of compound fluorescence: localised to one side of the nucleus; also recorded: Some regions show overlap between the Golgi and DC324
